Experimental data as given in patent EP3575401A1.
These are yes or no findings as the source states them, for the method shown. In cells and extracts the contact can be indirect. Some entries that bind do so weakly or less than the wild type.

The chains behind the UniProt entries cited, without tags or fusion partners.
UniProt P29341: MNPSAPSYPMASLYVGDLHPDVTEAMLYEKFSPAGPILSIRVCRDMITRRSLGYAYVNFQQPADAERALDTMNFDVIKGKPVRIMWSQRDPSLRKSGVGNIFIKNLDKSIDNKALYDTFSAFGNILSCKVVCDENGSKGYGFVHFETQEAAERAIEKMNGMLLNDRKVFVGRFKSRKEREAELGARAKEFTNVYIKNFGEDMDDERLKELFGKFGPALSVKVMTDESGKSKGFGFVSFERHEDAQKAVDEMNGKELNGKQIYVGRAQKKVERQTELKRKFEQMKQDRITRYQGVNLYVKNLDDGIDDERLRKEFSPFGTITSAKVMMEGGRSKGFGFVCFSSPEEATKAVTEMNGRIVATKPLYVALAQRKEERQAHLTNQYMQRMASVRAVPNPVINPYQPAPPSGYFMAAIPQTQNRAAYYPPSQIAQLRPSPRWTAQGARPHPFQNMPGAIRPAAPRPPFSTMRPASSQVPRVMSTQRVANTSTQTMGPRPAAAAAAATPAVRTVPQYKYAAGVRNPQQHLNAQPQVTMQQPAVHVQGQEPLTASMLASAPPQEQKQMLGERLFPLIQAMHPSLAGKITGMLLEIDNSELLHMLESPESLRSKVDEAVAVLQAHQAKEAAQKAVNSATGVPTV
UniProt Q80U58: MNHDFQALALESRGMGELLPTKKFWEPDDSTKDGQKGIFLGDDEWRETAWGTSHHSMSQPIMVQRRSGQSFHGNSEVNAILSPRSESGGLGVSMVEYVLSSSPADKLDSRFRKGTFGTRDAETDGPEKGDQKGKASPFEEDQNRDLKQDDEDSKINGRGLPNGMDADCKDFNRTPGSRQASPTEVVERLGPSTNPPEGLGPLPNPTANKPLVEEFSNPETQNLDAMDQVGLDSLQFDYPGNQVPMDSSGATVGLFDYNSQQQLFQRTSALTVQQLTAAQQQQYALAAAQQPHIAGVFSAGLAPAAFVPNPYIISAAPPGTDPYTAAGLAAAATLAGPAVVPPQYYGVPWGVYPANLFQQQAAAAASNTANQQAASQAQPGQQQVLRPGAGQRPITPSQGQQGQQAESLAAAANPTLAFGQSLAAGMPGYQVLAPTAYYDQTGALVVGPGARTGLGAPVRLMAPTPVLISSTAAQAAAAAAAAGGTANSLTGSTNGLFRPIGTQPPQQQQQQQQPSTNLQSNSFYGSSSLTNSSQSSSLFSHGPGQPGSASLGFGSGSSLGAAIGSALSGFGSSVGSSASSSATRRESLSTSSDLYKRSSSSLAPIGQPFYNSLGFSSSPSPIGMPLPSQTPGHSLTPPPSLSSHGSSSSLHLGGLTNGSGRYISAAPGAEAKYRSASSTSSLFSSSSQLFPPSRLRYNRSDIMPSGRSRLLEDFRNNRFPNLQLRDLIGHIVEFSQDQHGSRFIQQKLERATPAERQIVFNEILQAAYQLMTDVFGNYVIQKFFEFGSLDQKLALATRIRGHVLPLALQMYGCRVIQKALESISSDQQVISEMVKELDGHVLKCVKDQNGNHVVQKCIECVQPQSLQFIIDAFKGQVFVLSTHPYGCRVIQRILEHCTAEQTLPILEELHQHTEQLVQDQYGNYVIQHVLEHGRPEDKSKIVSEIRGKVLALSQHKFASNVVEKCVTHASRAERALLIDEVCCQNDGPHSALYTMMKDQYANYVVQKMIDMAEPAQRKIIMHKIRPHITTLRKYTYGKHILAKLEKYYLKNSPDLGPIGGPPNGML

Columns and labels:
[1] = target: PABPC1, stress granule (SG) protein, endogenous, from aged mouse brain (mouse) (UniProt P29341); assay: co-immunoprecipitation (anti-PUM2 against control IgG) from pooled fractions 4-7 of old mouse brain, western blot; legend of Figure 7B
[2] = target: PABPC1, stress granule (SG) protein, endogenous, from aged mouse brain (mouse) (UniProt P29341); assay: co-immunoprecipitation of endogenous PUM2 from heavy RNP fractions 4-7 of aged mouse brain, western blot

With “RNA-binding protein PUM2 (Pumilio2), endogenous, from aged mouse brain (from UniProt Q80U58 1-1066)” the binding [1] was “binds” and the binding [2] was “binds”.
